According to paper doi:10.1101/2022.12.02.518933:
No constants are given. Whether binding was seen depends on the method and setting. Some results given as binding are weak or reduced against the parent protein; the word gives no strength.

Assays:
[1] = biological target: T1, BtuCD (wild type) reconstituted into MSP1E3D1 nanodiscs with E. coli polar lipids (E. coli) (UniProt P06609+P06611); experiment: fluorescence polarisation
T1 sequence 1: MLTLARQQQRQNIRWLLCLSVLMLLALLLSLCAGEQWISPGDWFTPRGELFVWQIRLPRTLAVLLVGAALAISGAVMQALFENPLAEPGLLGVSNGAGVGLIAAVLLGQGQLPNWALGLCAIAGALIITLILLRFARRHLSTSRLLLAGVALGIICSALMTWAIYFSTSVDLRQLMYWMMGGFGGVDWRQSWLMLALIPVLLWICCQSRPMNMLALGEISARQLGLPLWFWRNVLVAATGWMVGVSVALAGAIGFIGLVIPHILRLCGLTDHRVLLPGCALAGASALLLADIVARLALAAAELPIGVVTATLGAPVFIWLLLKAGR
T1 sequence 2: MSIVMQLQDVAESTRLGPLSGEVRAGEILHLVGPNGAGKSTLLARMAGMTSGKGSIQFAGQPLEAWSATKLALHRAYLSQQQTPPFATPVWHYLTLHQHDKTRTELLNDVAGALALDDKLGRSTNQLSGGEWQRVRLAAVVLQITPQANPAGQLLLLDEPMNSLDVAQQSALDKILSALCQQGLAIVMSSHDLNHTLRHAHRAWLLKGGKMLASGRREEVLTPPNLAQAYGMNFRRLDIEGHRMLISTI

[2] = biological target: T1, BtuCD (wild type) reconstituted into MSP1E3D1 nanodiscs with E. coli polar lipids (E. coli); experiment: other fluorescence titration
[3] = biological target: T1, BtuCD (wild type) reconstituted into MSP1E3D1 nanodiscs with E. coli polar lipids (E. coli); experiment: fluorescence polarisation; remark: listed apart in the source

B1: unlabeled BtuF (protein, UniProt P37028 23-266)
chain: APRVITLSPANTELAFAAGITPVGVSSYSDYPPQAQKIEQVSTWQGMNLERIVALKPDLVIAWRGGNAERQVDQLASLGIKVMWVDATSIEQIANALRQLAPWSPQPDKAEQAAQSLLDQYAQLKAQYADKPKKRVFLQFGINPPFTSGKESIQNQVLEVCGGENIFKDSRVPWPQVSREQVLARSPQAIVITGGPDQIPKIKQYWGEQLKIPVIPLTSDWFERASPRIILAAQQLCNALSQVD
binding [1]: binds

B2: AlexaFluor 546 (AF546)-labeled E. coli BtuF (protein, UniProt P37028 23-266)
chain: APRVITLSPANTELAFAAGITPVGVSSYSDYPPQAQKIEQVSTWQGMNLERIVALKPDLVIAWRGGNAERQVDQLASLGIKVMWVDATSIEQIANALRQLAPWSPQPDKAEQAAQSLLDQYAQLKAQYADKPKKRVFLQFGINPPFTSGKESIQNQVLEVCGGENIFKDSRVPWPQVSREQVLARSPQAIVITGGPDQIPKIKQYWGEQLKIPVIPLTSDWFERASPRIILAAQQLCNALSQVD
modifications: Alexa Fluor 546 C5 maleimide on the cysteine appended to the C-terminus
binding [2]: binds
binding [3]: binds
binding [1]: binds

B3: AF546-labeled BtuF harboring the E72A mutation (protein, UniProt P37028 23-266)
chain: APRVITLSPANTELAFAAGITPVGVSSYSDYPPQAQKIEQVSTWQGMNLARIVALKPDLVIAWRGGNAERQVDQLASLGIKVMWVDATSIEQIANALRQLAPWSPQPDKAEQAAQSLLDQYAQLKAQYADKPKKRVFLQFGINPPFTSGKESIQNQVLEVCGGENIFKDSRVPWPQVSREQVLARSPQAIVITGGPDQIPKIKQYWGEQLKIPVIPLTSDWFERASPRIILAAQQLCNALSQVD
modifications: Alexa Fluor 546 C5 maleimide on the cysteine appended to the C-terminus
binding [1]: binds

B4: AF546-labeled BtuF harboring the E202A mutation (protein, UniProt P37028 23-266)
chain: APRVITLSPANTELAFAAGITPVGVSSYSDYPPQAQKIEQVSTWQGMNLERIVALKPDLVIAWRGGNAERQVDQLASLGIKVMWVDATSIEQIANALRQLAPWSPQPDKAEQAAQSLLDQYAQLKAQYADKPKKRVFLQFGINPPFTSGKESIQNQVLEVCGGENIFKDSRVPWPQVSRAQVLARSPQAIVITGGPDQIPKIKQYWGEQLKIPVIPLTSDWFERASPRIILAAQQLCNALSQVD
modifications: Alexa Fluor 546 C5 maleimide on the cysteine appended to the C-terminus
binding [1]: binds
